Data as given in PubChem BioAssay AID1671190 (National Center for Advancing Translational Sciences (NCATS), 2021).
Where “and” joins values, the source holds several entries; their conditions need not be identical. Identical values can stand only once. The campaign covered roughly 580,000 compounds. About 6,100 (1.1%) were called active. Inconclusive results, whose numbers are uncertain, are shown with a selection of clear calls. The call rests on the fitted dose curve; in most records, active means well fitted inhibition curve with a large enough effect; inconclusive means small, poorly fitted or top-dose-only effect, or another doubt; inactive means no such curve, though single readings can be large or run the other way. Potencies of inconclusive entries are doubtful fits and often do not repeat.

Sequences of proteins named here, by UniProt entry; tags and fusion partners are left off. A change or cut given only in a name is not applied to a line headed by its entry.
UniProt P18054: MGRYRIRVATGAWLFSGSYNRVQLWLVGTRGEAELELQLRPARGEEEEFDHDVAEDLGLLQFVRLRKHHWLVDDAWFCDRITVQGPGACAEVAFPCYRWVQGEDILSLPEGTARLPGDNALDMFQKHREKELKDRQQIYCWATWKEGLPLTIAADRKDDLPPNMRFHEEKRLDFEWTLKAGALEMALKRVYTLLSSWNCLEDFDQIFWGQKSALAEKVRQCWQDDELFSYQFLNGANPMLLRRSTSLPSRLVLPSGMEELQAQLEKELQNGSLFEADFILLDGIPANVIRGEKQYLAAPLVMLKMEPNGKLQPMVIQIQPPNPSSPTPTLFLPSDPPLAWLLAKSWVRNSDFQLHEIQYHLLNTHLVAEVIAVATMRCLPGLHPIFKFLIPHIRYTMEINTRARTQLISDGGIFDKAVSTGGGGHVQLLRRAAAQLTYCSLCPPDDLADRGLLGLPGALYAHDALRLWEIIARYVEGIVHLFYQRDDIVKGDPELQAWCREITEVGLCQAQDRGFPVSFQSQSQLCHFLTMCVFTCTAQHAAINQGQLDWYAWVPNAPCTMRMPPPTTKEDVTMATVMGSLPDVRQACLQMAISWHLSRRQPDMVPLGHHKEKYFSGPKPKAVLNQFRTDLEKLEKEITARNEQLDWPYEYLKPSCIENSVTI

Each compound was assayed against Polyunsaturated fatty acid lipoxygenase ALOX12 (Homo sapiens) (UniProt P18054) (assay: Primary qHTS assay for inhibitors of human arachidonate 12S-lipoxygenase (ALOX12): Round 2). Conditions: purified 12hLO, xylenol orange hydroperoxide absorbance; series mostly up to 108 µM.
Method in brief: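 Hydroperoxide product was detected by ferrous iron/xylenol orange as the 573 to 405 nm absorbance ratio. Arachidonic acid at 40 uM (final) was turned over for 30 min at room temperature by 150 nM human 12hLO, pH 7.0 Hepes buffer, after 15 min compound preincubation.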
Potency means the concentration at half of the fitted maximal effect.

SMILES	Potency
Cc1cc(C)cc(Nc2cc(C(=O)NCCCN(Cc3ccccc3)C(C)C)c3ccccc3n2)c1	inconclusive: 56.2 µM [inhibitor, partial curve, poor fit]
COc1ccc(Oc2coc3cc(OC)ccc3c2=O)cc1	inconclusive: 25.1 µM [inhibitor, partial curve, poor fit]
COc1ccc(CN2CCN(CCC=C(C)C)CC2CCO)cc1C (stereo not given)	inactive
CN(Cc1ccco1)c1ncncc1-c1cccc(NS(C)(=O)=O)c1	inconclusive: 39.8 µM [inhibitor, partial curve, poor fit]
COC(=O)c1c(C)[nH]c(-c2cc(OC)c(OC)c(OC)c2)c1C1C(=O)Nc2ccc(F)cc21 (stereo not given)	inconclusive: 44.7 µM [inhibitor, partial curve, poor fit]
Cc1noc(C)c1S(=O)(=O)NCc1ccc(CN(C)C)cc1	inconclusive: 35.5 µM [inhibitor, partial curve, poor fit]
CC(NC(=O)c1ccccc1F)C(=O)O (stereo not given)	inconclusive: 63.1 µM [inhibitor, partial curve, poor fit]
COC(=O)CC1(C(=O)OC)Nc2cc(Cl)c(Cl)cc2S(=O)(=O)N1O (stereo not given)	inconclusive: 63.1 µM [inhibitor, partial curve, poor fit]
C=CCN(Cc1ccco1)S(=O)(=O)c1ccc(Cl)cc1	inconclusive: 50.1 µM [inhibitor, partial curve, poor fit]
CCCC(C)NC(=O)c1ccccc1-c1ncc(-c2ccc(F)cc2)o1 (stereo not given)	inconclusive: 126 µM [inhibitor, single point]
CCOC(=O)c1c(C)[nH]c(C(=O)OCC(=O)Nc2cc(C)nn2-c2ccccc2)c1C	inconclusive: 56.2 µM [inhibitor, partial curve, poor fit]
CCN(C[C@H]1N[C@@](Cc2ccccc2)(C(=O)OC)[C@H]2C(=O)N(Cc3ccccc3)C(=O)[C@@H]12)S(=O)(=O)c1ccccc1	inactive
CCn1c(C)nc2cc(C(=O)NNC(=S)NC(=O)c3ccccc3)ccc21	inconclusive: 44.7 µM [inhibitor, partial curve, poor fit]
CCC(C)(C)n1nnnc1C(c1cc2ccc(OC)cc2[nH]c1=O)N1CCc2ccccc21 (stereo not given)	inconclusive: 3.98 µM [inhibitor, full curve, poor fit]
Cc1oc(C(O)c2ccccc2F)nc1C(=O)Nc1ccccc1C(N)=O (stereo not given)	inconclusive: 8.91 µM [inhibitor, full curve, poor fit]
Cc1cccc(C)c1OCCSc1nc2ccccc2n1CC(=O)O	inconclusive: 20 µM [inhibitor, full curve, poor fit] and inconclusive: 44.7 µM [inhibitor, partial curve, poor fit]
COc1ccc(-c2cnc(N)n2CC2CCCO2)cc1 (stereo not given)	inactive
CC(=O)Nc1ccc(NS(=O)(=O)c2ccc3c(c2)CC(C)N3C(=O)C2CCC2)cc1 (stereo not given)	inconclusive: 50.1 µM [inhibitor, partial curve, poor fit]
CCc1ccc(CNC(=O)CN2C(=O)NC3(CCCCC3)C2=O)cc1	inconclusive: 12.6 µM [inhibitor, full curve, poor fit]
CN(C(=O)COC(=O)c1cc2ccccc2cc1O)c1c(N)n(Cc2ccccc2)c(=O)[nH]c1=O	inconclusive: 89.1 µM [inhibitor, single point]

SMILES	Potency
NS(=O)(=O)c1ccc(N/N=C/c2cccs2)c([N+](=O)[O-])c1	inactive
C[N+]1(CC#Cc2ccc(C#CC[N+]3(C)CCOCC3)cc2)CCOCC1	inconclusive: 22.4 µM [inhibitor, full curve, poor fit]
CC(C)C(=O)Nc1nnc(Cc2c[nH]c3ccccc23)s1	inconclusive: 126 µM [inhibitor, single point]
O=C(CN1CCN(c2cccc(Cl)c2)CC1)NC1CCS(=O)(=O)C1 (stereo not given)	inactive
O=C(Nc1ccccc1)c1cc(-c2ccncc2)nc2ccccc12	inactive
CCn1c2c(c(=O)n1-c1ccccc1)CCN(C(=O)c1ccc(Oc3ccccc3)cc1)C2	inactive
COc1ccc(/C=N/OCc2ccc(Cl)c(Cl)c2)c(OC)c1	inconclusive: 44.7 µM [inhibitor, partial curve, poor fit]
CN1Cc2ccc(Nc3ccccc3)nc2C(C)(C(=O)NCc2ccc3c(c2)OCO3)C1 (stereo not given)	inconclusive: 100 µM [inhibitor, partial curve, poor fit]
COc1ccc(C(=O)O/N=C2\CCCc3nonc32)cc1	inactive
CC(CC(=O)Nc1ccc2c(c1)c(=O)n(C)n2Cc1ccc(Cl)cc1)C(F)(F)F (stereo not given)	inconclusive: 44.7 µM [inhibitor, partial curve, poor fit]
CC(=O)Nc1ccc(NC(=O)CSc2nc3c(=O)n(C)c(=O)n(C)c3n2C)cc1	inconclusive: 8.91 µM [inhibitor, full curve, poor fit]
O=C1c2ccccc2C(c2nc3ccccc3[nH]2)N1c1ccccn1 (stereo not given)	inconclusive: 44.7 µM [inhibitor, single point]
COC1CN(c2ccc(C)cc2)C12CCN(C(=O)CCc1nc3ccccc3s1)CC2 (stereo not given)	inconclusive: 70.8 µM [inhibitor, partial curve]
Cc1cccc(C(=O)OCC(=O)c2ccc(CC(=O)N3CCOCC3)s2)c1C	inconclusive: 39.8 µM [inhibitor, partial curve, poor fit]
COc1cccc(Nc2cccc(CN3CCC(C)(NC(C)=O)C3)c2)c1 (stereo not given)	inconclusive: 112 µM [inhibitor, partial curve, poor fit]
Cc1nc2c(O)cccc2c(=O)[nH]1	inconclusive: 4.47 µM [inhibitor, partial curve, poor fit]
COCCNC(=O)/C(C#N)=C/c1ccc(-c2ccc(OC)cc2[N+](=O)[O-])o1	inconclusive: 112 µM [inhibitor, single point]
COc1cccc(CN2CCc3nc(C(C)C)nc(-c4ccc(O)cc4)c3CC2)c1	inconclusive: 56.2 µM [inhibitor, partial curve, poor fit]
COCCOc1cc(C)c2c(c1C)C[C@H](C(C)C(=O)N1CCOCC1)CC2 (stereo not given in full)	inconclusive: 39.8 µM [inhibitor, full curve, poor fit]
COc1ccc(CN2CC3(CCN(C(=O)Nc4cccc(Cl)c4)CC3)C2=O)cc1	inactive

SMILES	Potency
Cc1ccc(NS(=O)(=O)c2c(C)[nH]c(C)c2C(=O)N2CCCCC2)cc1Cl	inconclusive: 3.98 µM [inhibitor, full curve, poor fit]
C/C(=N\O)c1ccc2c(c1)OCCO2	inactive
CCOC(=O)NC(=O)/C(C#N)=N\Nc1cccc(OC)c1	inconclusive: 7.94 µM [inhibitor, full curve, poor fit]
O=C(c1cc2ccccc2oc1=O)N1CCN(S(=O)(=O)c2ccc(F)cc2)CC1	inconclusive: 89.1 µM [inhibitor, single point]
C#CCOCCOCCOCCNc1nc(N2CCN(C(=O)[C@H](CCCN=C(N)N)n3cc(C(N)[C@@H](C)CC)nn3)CC2)nc(N2CCN(C(=O)[C@H](CCC(=O)O)n3cc([C@@H](N)CC(N)=O)nn3)CC2)n1 (stereo not given in full)	inactive
Cc1ccc(C)c2sc(NC(=O)c3ccc(S(=O)(=O)N4CCCC4)cc3)nc12	inconclusive: 44.7 µM [inhibitor, partial curve]
Cc1cc(C)c2oc(=O)cc(CN(C)CCO)c2c1	inconclusive: 35.5 µM [inhibitor, partial curve, poor fit]
Cc1c(CNCc2ccc(OC(C)C)cc2)c(C(=O)O)c(C)n1Cc1ccc(Cl)cc1	inconclusive: 50.1 µM [inhibitor, partial curve, poor fit]
O=C(COc1ccccc1)N1CCC(Oc2cnc3c(ccn3-c3cncnc3)c2)CC1	inconclusive: 89.1 µM [inhibitor, partial curve, poor fit]
Cc1ccc2c(c1)-c1nc3ccccc3cc1/C2=C\c1cccnc1	inactive
Cc1cccc(N/N=C/c2ccccc2O)c1	active: 39.8 µM
O=C(Cc1ccccc1[N+](=O)[O-])NC1CCN(Cc2ccccc2)CC1	inconclusive: 100 µM [inhibitor, single point]
NC(=O)c1ccc(N2CCN(Cc3cnc(-c4ccco4)nc3)CC2)nc1	inactive
c1coc(-c2nnc([C@H]3CCN(Cc4cccs4)C3)o2)c1	inactive
CC(C)(C)C(=O)N1CCN(c2ccc([N+](=O)[O-])cc2-n2cccc2)CC1	inconclusive: 141 µM [inhibitor, partial curve, poor fit]
CCC(C)(C)NS(=O)(=O)c1cc(-c2cc(C)no2)ccc1C	inconclusive: 141 µM [inhibitor, partial curve, poor fit]
COc1ccc(Cl)cc1-n1c(N)c(C(N)=O)sc1=S	inconclusive: 20 µM [inhibitor, full curve, poor fit]
COc1ccc(-c2nc(CSCC(=O)N3CCN(C)CC3)c(C)o2)cc1OC	inactive
COc1ccccc1NC(=S)NCCc1ccc(F)cc1	inconclusive: 44.7 µM [inhibitor, partial curve]
